# The other results are listed elsewhere or left out.
# B1: his-Lectin-24A (Drosophila melanogaster) (protein)
# chain: MFRLSVLVLNLLLVSHEFSAGTAKIEIQPLPALCNGYCFPTLKPVMEYVAIHQDKWNTCTEILANEARKDQIQLNIQLDALKADVSNIKASQLSKDEKLDRMEREQFAMHESLETINRYLTVKLDRTKLQLEAIKNTMDYMKAQMDGYFSAINGVQCLQPGFEKIGDRYFYIEEDVELNWLDAQAKCRRMGGHLASIKTKQEFDAIVEKLDDSKSYFLGVNENTKTGDFVSAASGKSCLYHEWGPGEPHHNNDQERCVSILRKLMHVGNCTYEKRFICQYGI
# Legend:
# Test in all cases: glycan array binding signal (z-score within array); higher = stronger binding
# Conditions in all cases: glycan notation: IUPAC condensed, linker removed
# [1] = biological target: Fuc(a1-3)GlcNAc
# Outline: (§1)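 Glycan array binding is given as a within-array Z-score, which can be read as non-binding when negative. The arrays, 3228 of them, came from the Consortium for Functional Glycomics database and were retained only where the protein sequence was available. Z-scores were averaged across arrays of the same protein sequence at different concentrations or buffers and across linkers.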
# [2] = biological target: Fuc(a1-3)[Gal(b1-4)]Glc6S
# Outline: as §1
# [3] = biological target: Fuc(a1-3)[Gal(b1-4)]GlcNAc
# Outline: as §1
# [4] = biological target: Fuc(a1-3)[Gal(b1-4)]GlcNAc(b1-2)Man
# Outline: as §1
# [5] = biological target: Fuc(a1-3)[Gal(b1-4)]GlcNAc(b1-2)Man(a1-3)[Fuc(a1-3)[Gal(b1-4)]GlcNAc(b1-2)Man(a1-6)]Man(b1-4)GlcNAc(b1-4)GlcNAc
# Outline: as §1
# [6] = biological target: Fuc(a1-3)[Gal(b1-4)]GlcNAc(b1-2)Man(a1-3)[Fuc(a1-3)[Gal(b1-4)]GlcNAc(b1-2)Man(a1-6)]Man(b1-4)GlcNAc(b1-4)[Fuc(a1-6)]GlcNAc
# Outline: as §1
# [7] = biological target: Fuc(a1-3)[Gal(b1-4)]GlcNAc(b1-3)Gal(b1-3)[Fuc(a1-4)]GlcNAc
# Outline: as §1
# [8] = biological target: Fuc(a1-3)[Gal(b1-4)]GlcNAc(b1-3)Gal(b1-4)[Fuc(a1-3)]GlcNAc
# Outline: as §1
# [9] = biological target: Fuc(a1-3)[Gal(b1-4)]GlcNAc(b1-3)Gal(b1-4)[Fuc(a1-3)]GlcNAc(b1-3)Gal(b1-4)[Fuc(a1-3)]GlcNAc
# Outline: as §1
# [10] = biological target: Fuc(a1-3)[Gal(b1-4)]GlcNAc(b1-3)GalNAc
# Outline: as §1
# [11] = biological target: Fuc(a1-3)[Gal(b1-4)]GlcNAc(b1-6)GalNAc
# Outline: as §1
# [12] = biological target: Fuc(a1-3)[Gal(b1-4)]GlcNAc(b1-6)[Gal(b1-3)GlcNAc(b1-3)]Gal(b1-4)Glc
# Outline: as §1
# [13] = biological target: Fuc(a1-3)[Gal(b1-4)]GlcNAc6S
# Outline: as §1
# [14] = biological target: Fuc(a1-3)[Gal3S(b1-4)]Glc
# Outline: as §1
# [15] = biological target: Fuc(a1-3)[Gal3S(b1-4)]GlcNAc
# Outline: as §1
# [16] = biological target: Fuc(a1-3)[Gal3S(b1-4)]GlcNAc6S
# Outline: as §1
# [17] = biological target: Fuc(a1-3)[GalNAc(b1-4)]GlcNAc
# Outline: as §1
# [18] = biological target: Fuc(a1-3)[GalNAc(b1-4)]GlcNAc6S
# Outline: as §1
# [19] = biological target: Fuc(a1-4)GlcNAc
# Outline: as §1
# [20] = biological target: Fuc(b1-3)GlcNAc
# Outline: as §1
# [21] = biological target: Gal(a1-2)Gal
# Outline: as §1
# [22] = biological target: Gal(a1-3)Gal
# Outline: as §1
# [23] = biological target: Gal(a1-3)Gal(b1-3)GlcNAc
# Outline: as §1
# [24] = biological target: Gal(a1-3)Gal(b1-3)GlcNAc(b1-2)Man
# Outline: as §1
# [25] = biological target: Gal(a1-3)Gal(b1-3)GlcNAc(b1-2)Man(a1-3)[Gal(a1-3)Gal(b1-3)GlcNAc(b1-2)Man(a1-6)]Man(b1-4)GlcNAc(b1-4)GlcNAc
# Outline: as §1
# [26] = biological target: Gal(a1-3)Gal(b1-3)GlcNAc(b1-3)GalNAc
# Outline: as §1
# [27] = biological target: Gal(a1-3)Gal(b1-3)GlcNAc(b1-6)GalNAc
# Outline: as §1
# [28] = biological target: Gal(a1-3)Gal(b1-3)[Fuc(a1-4)]GlcNAc(b1-2)Man(a1-3)[Gal(a1-3)Gal(b1-3)[Fuc(a1-4)]GlcNAc(b1-2)Man(a1-6)]Man(b1-4)GlcNAc(b1-4)GlcNAc
# Outline: as §1
# [29] = biological target: Gal(a1-3)Gal(b1-4)Glc
# Outline: as §1
# [30] = biological target: Gal(a1-3)Gal(b1-4)GlcNAc
# Outline: as §1
binder,measurement,setting,value
B1,glycan array binding signal (z-score),[1],1.03
same,glycan array binding signal (z-score),[2],-0.078
same,glycan array binding signal (z-score),[3],-1.1
same,glycan array binding signal (z-score),[4],1.26
same,glycan array binding signal (z-score),[5],-0.599
same,glycan array binding signal (z-score),[6],0.275
same,glycan array binding signal (z-score),[7],-1.11
same,glycan array binding signal (z-score),[8],0.472
same,glycan array binding signal (z-score),[9],0.276
same,glycan array binding signal (z-score),[10],-0.137
same,glycan array binding signal (z-score),[11],0.241
same,glycan array binding signal (z-score),[12],-1.75
same,glycan array binding signal (z-score),[13],0.362
same,glycan array binding signal (z-score),[14],-1.19
same,glycan array binding signal (z-score),[15],-0.144
same,glycan array binding signal (z-score),[16],0.942
same,glycan array binding signal (z-score),[17],0.526
same,glycan array binding signal (z-score),[18],0.837
same,glycan array binding signal (z-score),[19],-0.677
same,glycan array binding signal (z-score),[20],-0.015
same,glycan array binding signal (z-score),[21],-1.5
same,glycan array binding signal (z-score),[22],1.97
same,glycan array binding signal (z-score),[23],1.41
same,glycan array binding signal (z-score),[24],-0.142
same,glycan array binding signal (z-score),[25],2.35
same,glycan array binding signal (z-score),[26],-0.318
same,glycan array binding signal (z-score),[27],-0.445
same,glycan array binding signal (z-score),[28],1.32
same,glycan array binding signal (z-score),[29],1.01
same,glycan array binding signal (z-score),[30],0.285

# In a second layout: results already given.
binder	measurement	setting	value
B1	glycan array binding signal (z-score)	[9]	0.276
same	glycan array binding signal (z-score)	[30]	0.285

# Reference: the supplement of paper PMC8728848
